Measurements reported in PubChem BioAssay AID1259254 (NCATS, 2017)

Purpose: 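Gene knock-downs that lead to re-replication, shown by excess G2 DNA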 (primary screen)
Cell system: human HCT116 colorectal cancer cells
Reagents: single siRNA against human genes
Duration: 3 days
Detection: 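Imaged Hoechst DNA stain sorts each cell into a cycle phase by DNA amount; per plate, G2 fraction set to 0% for non-targeting and 100% for GMNN siRNA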
Reading the numbers: G2 robust z-score and G2 cells, % of GMNN control: higher = more G2 cells, more excess DNA replication; raw share of cells in G2: higher = larger share of cells with G2 DNA content
Call rule: 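Active siRNAs have a G2 robust z of 5 or more median absolute deviations over the median, which in these data means about 38% or higher of GMNN control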
This is one part, drawn at random, of about 59,000 reagents. Of all reagents, about 1,550 (2.6%) got an active call. 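G2 share is only a proxy for re-replication; each gene was hit by three separate siRNAs, and active genes were retested.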 The raw values are shown without normalisation. Reagents against one gene are numbered here. Reagent sequences are not shown. Not stated in the record: the amount of reagent.

target,reagent no.,G2 robust z-score,"G2 cells, % of GMNN control",raw share of cells in G2 (%),Outcome
CLEC4C,1,0.764,8.34,8.21,inactive
CLEC4C,2,3.38,26.7,18.7,inactive
CLEC4C,3,0.928,9.5,8.18,inactive
RPS14,1,9.44,69.4,34.5,active
RPS14,2,3.13,25,14.1,inactive
RPS14,3,5.37,40.8,18.1,active
AKAP8L,1,-0.317,0.739,5.82,inactive
AKAP8L,2,0.0818,3.54,6.48,inactive
AKAP8L,3,-0.542,-0.847,3.41,inactive
MRE11,1,-0.692,-1.9,4.62,inactive
MRE11,2,2.7,22,10.4,inactive
MRE11,3,1.01,10.1,9.48,inactive
CREB3L2,1,0.404,5.81,8.05,inactive
CREB3L2,2,1.23,11.6,8.45,inactive
CREB3L2,3,0.636,7.45,6.93,inactive
CLDND2,1,-0.29,0.93,3.61,inactive
CLDND2,2,-0.475,-0.376,1.71,inactive
CLDND2,3,-0.251,1.2,4.57,inactive
TGM2,1,0.694,7.85,6.56,inactive
TGM2,2,-0.752,-2.32,3.75,inactive
TGM2,3,-1.41,-6.94,3.35,inactive
RAB11A,1,2.57,21,12.7,inactive
RAB11A,2,0.401,5.79,6.78,inactive
RAB11A,3,-0.288,0.943,4.97,inactive
TLE4,1,3.8,29.7,18.3,inactive
TLE4,2,0.632,7.42,6.83,inactive
TLE4,3,-0.683,-1.84,2.7,inactive
TUSC2,1,2.86,23.1,14,inactive
TUSC2,2,1.41,12.9,9.47,inactive
TUSC2,3,-0.177,1.72,3.82,inactive
ADAM10,1,-1.31,-6.25,3.38,inactive
ADAM10,2,-0.716,-2.07,4.17,inactive
ADAM10,3,0.0489,3.31,5.15,inactive
CLCNKA,1,-1.22,-5.64,3.24,inactive
CLCNKA,2,3.74,29.3,14.7,inactive
CLCNKA,3,0.52,6.63,6.96,inactive
IGFL2-AS1,1,-0.104,2.23,4.62,inactive
IGFL2-AS1,2,0.0121,3.05,4.36,inactive
IGFL2-AS1,3,-0.557,-0.953,2.74,inactive
TUBGCP2,1,1.24,11.7,9.56,inactive
TUBGCP2,2,0.266,4.84,6.13,inactive
TUBGCP2,3,0.772,8.4,6.32,inactive
USF3,1,2.19,18.3,10.2,inactive
USF3,2,0.0499,3.32,4.27,inactive
USF3,3,-0.819,-2.79,2.3,inactive
HPDL,1,0.694,7.85,7.69,inactive
HPDL,2,0.381,5.65,7.78,inactive
HPDL,3,1.52,13.7,9.15,inactive
NKX3-1,1,-0.446,-0.173,4.9,inactive
NKX3-1,2,-0.845,-2.98,3.05,inactive
NKX3-1,3,-0.851,-3.02,2.26,inactive
GXYLT1,1,0.307,5.13,5.51,inactive
GXYLT1,2,0.691,7.83,6.07,inactive
GXYLT1,3,0.175,4.2,4.54,inactive
PPP1R3E,1,4.66,35.8,14.3,inactive
PPP1R3E,2,-1.36,-6.63,1.27,inactive
PPP1R3E,3,1.37,12.6,6.94,inactive
GOT1L1,1,-0.898,-3.35,3.29,inactive
GOT1L1,2,-0.519,-0.685,5.63,inactive
GOT1L1,3,6.2,46.6,21.8,active
PATE2,1,0.0634,3.41,6.21,inactive
PATE2,2,0.592,7.13,6.4,inactive
PATE2,3,-0.11,2.19,4.39,inactive
HCN3,1,0.606,7.23,7.92,inactive
HCN3,2,-1.05,-4.39,3.3,inactive
HCN3,3,0.344,5.39,6.48,inactive
IFNL3,1,0.639,7.46,5.93,inactive
IFNL3,2,-0.431,-0.062,3.25,inactive
IFNL3,3,2.62,21.4,11.4,inactive

9 successive reagents from above:
target,reagent no.,G2 robust z-score,"G2 cells, % of GMNN control",raw share of cells in G2 (%),Outcome
HPDL,2,0.381,5.65,7.78,inactive
HPDL,3,1.52,13.7,9.15,inactive
NKX3-1,1,-0.446,-0.173,4.9,inactive
NKX3-1,2,-0.845,-2.98,3.05,inactive
NKX3-1,3,-0.851,-3.02,2.26,inactive
GXYLT1,1,0.307,5.13,5.51,inactive
GXYLT1,2,0.691,7.83,6.07,inactive
GXYLT1,3,0.175,4.2,4.54,inactive
PPP1R3E,1,4.66,35.8,14.3,inactive
